This is an account of results in paper PMC9596218.

Chains of the proteins cited; added tags and fusions are not shown.
UniProt P10415: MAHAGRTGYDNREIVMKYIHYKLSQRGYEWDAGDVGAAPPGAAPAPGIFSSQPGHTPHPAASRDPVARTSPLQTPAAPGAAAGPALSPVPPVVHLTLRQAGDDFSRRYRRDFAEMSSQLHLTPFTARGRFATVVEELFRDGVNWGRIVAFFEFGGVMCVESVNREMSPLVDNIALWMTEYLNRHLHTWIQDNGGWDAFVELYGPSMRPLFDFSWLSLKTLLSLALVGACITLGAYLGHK
UniProt Q14457: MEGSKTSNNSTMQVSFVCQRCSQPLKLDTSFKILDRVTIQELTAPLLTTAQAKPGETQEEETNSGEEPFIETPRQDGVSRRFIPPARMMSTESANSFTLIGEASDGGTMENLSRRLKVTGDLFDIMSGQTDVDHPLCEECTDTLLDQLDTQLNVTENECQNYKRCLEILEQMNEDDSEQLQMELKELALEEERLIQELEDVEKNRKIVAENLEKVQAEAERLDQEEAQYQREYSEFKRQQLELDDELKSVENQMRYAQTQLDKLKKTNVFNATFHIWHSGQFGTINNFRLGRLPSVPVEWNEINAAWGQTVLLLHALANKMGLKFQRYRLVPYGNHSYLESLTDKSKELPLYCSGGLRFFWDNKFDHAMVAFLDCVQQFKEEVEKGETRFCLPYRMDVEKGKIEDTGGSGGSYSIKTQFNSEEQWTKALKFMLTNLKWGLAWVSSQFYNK

Results are given in words; binding and its absence hold for the method and conditions named. In cells and extracts the contact can be indirect. Some entries that bind do so weakly or less than the wild type.

The target in assay [1] is Bcl-2 (human (endogenous in NB1RGB)) (UniProt P10415). The assay is described as follows: condition: only cells treated with 50 μg/mL lotus germ extract for 24 h; co-IP; aging NB1RGB cells treated with 50 μg/mL lotus germ extract for 24 h; proteins cross-linked in cells with 1 mM DSP for 30 min before lysis in Tris lysis buffer; primary antibody covalently immobilised on protein A/G PLUS-agarose; western blotting.

Assay [2] has the same target. The assay is described as follows: co-IP; aging NB1RGB cells treated with DMSO (also 50 μg/mL lotus germ extract with 10 μM TC-DAPK6) for 24 h; proteins cross-linked in cells with 1 mM DSP for 30 min before lysis in Tris lysis buffer; primary antibody covalently immobilised on protein A/G PLUS-agarose; western blotting. In general terms: A western blot detects proteins with antibodies after separation by electrophoresis.

For Beclin1 (from UniProt Q14457 1-450), the binding entry was “no binding” in assay [1] and “binds” in assay [2].
